A short description of this experiment: qHTS Assay for Modulators of Lamin A Splicing. Particulars: HeLa LMNA splicing GFP/RFP minigene ratio, 48 h. In outline:
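Read-out is the ratio of GFP to DsRed2 object intensity, acquired by 488 nm laser-scanning cytometry on HeLa lamin A-EGFP minigene reporter cells. Compound incubation 48 hrs at 37 °C in Opti-MEM with 2% FBS; DMSO 0.5% final.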

Setting [1] is: measured here: GFP splicing reporter channel.
Setting [2] is: measured here: RFP viability control channel.

Molecules are shown by their SMILES. This is one part of the list. Further columns of the screen follow, without active or inactive calls. The list favours compounds with an active or inconclusive main result. Words in brackets tell the shape of the fitted curve; partial curves, single points and poor fits give uncertain potencies.

The AC50 is the concentration at which the activity in the assay is half-maximal.

In the case of `O=C1C=C(Nc2ccccc2)c2ccccc2C1=O`, the concentration at half-maximal activity (AC50) under setting [1] is 11.2 µM [falling, partial curve] and the AC50 under setting [2] was 35.5 µM [falling, single point]. For the compound `CCOc1cc(C=C(C(=O)OC)C(=O)OC)ccc1OCc1ccc([N+](=O)[O-])cc1`, the concentration at half-maximal activity (AC50) was 8.91 µM [falling, partial curve, poor fit] under setting [1] and 11.2 µM [falling, partial curve] under setting [2].

Turning to `Clc1ccccc1-c1ccc2ncnc(NCc3cccnc3)c2c1`, the AC50 was 15.8 µM [falling, single point] under setting [1] and 25.1 µM [falling, single point] under setting [2]. Consider `Cc1ccc(C(=O)NCCSc2ccc(Cl)cc2)cc1[N+](=O)[O-]`, for which the AC50 is 25.1 µM [rising, partial curve, poor fit] under setting [1] and 35.5 µM [falling, single point] under setting [2]. Regarding `Cc1nc2ncnn2c(N2CCN(C(=O)Cc3cccs3)CC2)c1C`, the half-maximal activity concentration (AC50) was 7.08 µM [rising, partial curve] under setting [1] and 11.2 µM [rising, partial curve] under setting [2]. `O=C(c1ccccc1F)N1c2ncnn2C2(CCCCC2)[C@@H]2CCCC[C@@H]21`: the AC50 is 0.794 µM [falling, full curve, poor fit] under setting [1] and 0.282 µM [falling, partial curve] under setting [2]. Turning to `COc1ccc(C2=C(C)C(N3CCC(C(=O)Nc4ccccc4F)CC3)=NS2(=O)=O)cc1`, the AC50 under setting [1] was 12.6 µM [falling, partial curve, poor fit] and the AC50 under setting [2] was 11.2 µM [falling, partial curve]. Regarding `COC(=O)c1ccccc1NC(=O)COC(=O)CSCC(=O)N1CCOCC1`, the AC50 under setting [2] is 0.316 µM [falling, full curve, poor fit]. `CCOc1cccc(C(=O)NC(=S)Nc2cccc(C)c2)c1`: the AC50 under setting [1] was 14.1 µM [rising, partial curve]. Consider `O=[N+]([O-])c1cc(C(F)(F)F)ccc1NCCc1c[nH]c2ccccc12`, for which the AC50 under setting [2] was 35.5 µM [rising, single point]. For `O=C(Nc1ccc(Cl)cc1)NC1CCCc2ccccc21` (stereo not given), under setting [2], the AC50 is 35.5 µM [falling, single point]. Consider `O=C1OC2(CCCC2)OC(=O)C1=Cc1c[nH]c2ccccc12`, for which the AC50 under setting [1] was 5.01 µM [falling, full curve, poor fit]. As for `COc1ccc(NS(=O)(=O)c2cc(C)ccc2NC(=O)c2cc(C)oc2C)cc1`, the AC50 under setting [2] is 0.501 µM [rising, full curve, poor fit]. Consider `COCCn1c(-c2ccc(OC)cc2)cnc1SCC(=O)Nc1ccc(OC)cc1OC`, for which, under setting [2], the AC50 is 11.2 µM [rising, partial curve, poor fit]. Still for that read-out and setting: the value for `CCn1c(C)nc2cc(S(=O)(=O)N3CCCC3)ccc21` was 17.8 µM [rising, partial curve]. With `c1ccc(C(c2ccccc2)N2CCN(Cc3nnnn3C3CCCC3)CC2)cc1`, the half-maximal activity concentration (AC50) is, setting by setting: under setting [1], 17.8 µM [rising, single point]; under setting [2], 35.5 µM [rising, single point]. For the compound `Cc1ccc2oc(=O)cc(/C=C/c3ccccc3)c2c1`, the concentration at half-maximal activity (AC50) is 11.2 µM [rising, single point] under setting [1] and 14.1 µM [rising, single point] under setting [2]. For `O=C(NCc1cccs1)c1cc(-c2ccccc2)on1`, the concentration at half-maximal activity (AC50) under setting [2] was 11.2 µM [rising, single point].

Consider `O=C(CNCc1ccc(F)cc1)Nc1ccccc1-c1ccccc1`, for which the AC50 reads like this: under setting [1], 17.8 µM [rising, partial curve, poor fit]; under setting [2], 17.8 µM [rising, partial curve]. As for `O=C(Nc1cc(=O)[nH]c2ncnn12)c1ccccc1F`, the AC50 under setting [2] was 0.0447 µM [falling, full curve, poor fit]. Same read-out and setting: the value for `COc1ccccc1/C=N/NC(=O)c1ccc(-c2ccccc2)cc1` was 31.6 µM [rising, single point].

Consider `c1ccc2c(CCNc3ncnc4nc[nH]c34)c[nH]c2c1`, for which the AC50 runs as follows: under setting [1], 7.08 µM [rising, partial curve]; under setting [2], 10 µM [rising, partial curve]. With `CCOC(=O)C1CCCN(C2CC(=O)N(c3ccccc3)C2=O)C1` (stereo not given), the AC50 under setting [2] was 0.0141 µM [falling, full curve, poor fit]. `COc1ccc(NC(=O)CSc2cc(C)ccc2C)cn1`: the AC50 under setting [1] was 35.5 µM [rising, partial curve, poor fit] and the concentration at half-maximal activity (AC50) under setting [2] is 7.94 µM [rising, partial curve, poor fit]. Consider `CCCCn1c(-c2sccc2C)n[nH]c1=S`, for which the AC50 by setting is: under setting [1], 0.126 µM [falling, full curve, poor fit]; under setting [2], 0.562 µM [falling, full curve]. Take `CN(Cc1ccco1)c1ncncc1-c1ccccc1Cl`: the AC50 is 35.5 µM [falling, single point] under setting [1] and 35.5 µM [falling, single point] under setting [2]. Regarding `O=C(N/N=C/C=C/c1ccccc1[N+](=O)[O-])c1cc(-c2cccnc2)nc2ccccc12`, under setting [2], the concentration at half-maximal activity (AC50) was 11.2 µM [rising, partial curve]. Same read-out and setting: then `CCOc1ccccc1-c1nc(-c2ccc(NC(=O)Cc3ccc(OC)cc3)cc2)no1`, with 12.6 µM [falling, partial curve, poor fit].

With `O=C(NCc1ccc2c(c1)OCO2)c1cccc(C(=O)NCc2ccc3c(c2)OCO3)c1`, the AC50 reads like this: under setting [1], 17.8 µM [rising, partial curve]; under setting [2], 17.8 µM [rising, partial curve]. As for `Cc1ccc(NC2=CC(=O)CC(c3ccccc3)C2)cc1` (stereo not given), the AC50 under setting [1] was 10 µM [rising, single point]. The same measure, in the same setting: then `COc1cc(/C=N/NC(=O)CC23CC4CC(CC(C4)C2)C3)cc(Br)c1OCC(=O)N(C)C`, with 35.5 µM [rising, single point]. As for `OCCCNc1nc(-c2ccc(Cl)cc2)nnc1-c1ccc(Br)cc1`, the concentration at half-maximal activity (AC50) is, setting by setting: under setting [1], 17.8 µM [rising, single point]; under setting [2], 14.1 µM [rising, single point]. Turning to `Cc1ccc(C)c(C(C)NC(=O)c2ccccc2Br)c1` (stereo not given), the AC50 runs as follows: under setting [1], 11.2 µM [rising, single point]; under setting [2], 12.6 µM [rising, single point]. Consider `CCCC(=O)Nc1ccc(OC[C@@H](O)CNC(C)C)c(C(C)=O)c1`, for which the AC50 was 8.91 µM [falling, single point] under setting [1] and 0.562 µM [falling, single point] under setting [2].

With `Cc1cc(C(C)(C)C)oc1C(=O)N(CC(=O)NC1CCCC1)c1c(C)cccc1C`, the AC50 under setting [2] is 25.1 µM [rising, single point]. Take `Cn1c(=O)c(C(=O)Nc2ccccn2)c(O)c2ccccc21`: under setting [2], the AC50 is 0.891 µM [rising, partial curve, poor fit]. The same measure, in the same setting: then `CCCCn1cc(S(=O)(=O)c2cc(C)ccc2C)c(=O)c2cc(F)c(N3CCC(C)CC3)cc21`, with 3.55 µM [rising, single point]. For `CCn1c(CCn2c3ccccc3c3ccccc32)n[nH]c1=S`, the concentration at half-maximal activity (AC50) is, setting by setting: under setting [1], 14.1 µM [rising, single point]; under setting [2], 20 µM [rising, single point].

For the compound `N#CCCN1CCN(Cc2cc(-c3ccccc3)ccc2O)CC1`, the AC50 was 35.5 µM [rising, single point] under setting [1] and 31.6 µM [rising, single point] under setting [2]. Take `COc1ccccc1NC(=O)COc1ccc(Br)cc1CNCCCN1CCOCC1`: under setting [2], the half-maximal activity concentration (AC50) is 2 µM [rising, full curve, poor fit].

On to `CSc1ncc(C(=O)Nc2ccccc2C(F)(F)F)c(-c2ccccc2)n1`, for which the half-maximal activity concentration (AC50) under setting [1] is 0.0224 µM [rising, full curve, poor fit]. For the compound `Cc1ccc(Nc2ncnc3c2cnn3-c2ccc(C)cc2)cc1`, the AC50 was 1.26 µM [falling, full curve] under setting [1] and 1.41 µM [falling, full curve] under setting [2]. Consider `CC(C)Cc1csc(NC(=O)c2ccccc2Cl)c1C(=O)O`, for which the AC50 under setting [1] was 35.5 µM [rising, single point] and the half-maximal activity concentration (AC50) under setting [2] is 35.5 µM [rising, single point]. Regarding `CC(=O)c1cccc2c(O)c(C3=Nc4ccccc4C3=O)[nH]c12`, the AC50 under setting [2] is 10 µM [falling, partial curve].

Consider `CC(=O)c1cccc(S(=O)(=O)N(C)C2CCN(C)CC2)c1`, for which the AC50 under setting [2] is 0.141 µM [rising, full curve, poor fit].

On to `Cc1ccc(NC2=C(NC(=O)c3ccccc3)C(=O)c3ccccc3C2=O)cc1Cl`, for which, under setting [2], the concentration at half-maximal activity (AC50) is 35.5 µM [rising, single point].

As for `Cc1ccc(S(=O)(=O)N(C)CC(=O)Nc2ccncc2)cc1`, the AC50 under setting [2] is 14.1 µM [rising, single point]. As for `NS(=O)(=O)c1cccc(NC(=O)CN2CCc3ccccc32)c1`, under setting [1], the half-maximal activity concentration (AC50) was 3.55 µM [falling, full curve]. Consider `CCCCn1c(SCc2c(C)noc2C)nc2cc(S(N)(=O)=O)ccc21`, for which the AC50 under setting [1] was 6.31 µM [falling, full curve, poor fit] and the AC50 under setting [2] was 14.1 µM [rising, single point].

As for `c1ccc2c(c1)[nH]c1nc3nncn3nc12`, the half-maximal activity concentration (AC50) under setting [2] was 2.51 µM [rising, single point]. On the same count and under the same terms, then `COc1ccc(-n2cc(C(=O)N(C)c3cc(C)ccc3OC)c3ccccc3c2=O)cc1`, with 11.2 µM [rising, partial curve]. For `Cc1ccc(/C=N/Nc2nc(C(C)(C)C)cs2)o1`, the AC50 is 0.891 µM [falling, full curve, poor fit] under setting [1] and 0.708 µM [falling, full curve, poor fit] under setting [2]. In the case of `Cc1cccc(NC(=O)C2CCN(S(=O)(=O)c3cccs3)CC2)n1`, the concentration at half-maximal activity (AC50) under setting [2] is 11.2 µM [rising, partial curve]. As to `O=C(CCc1ccccc1)NC(=S)Nc1ccc(S(=O)(=O)N2CCOCC2)cc1`, the AC50 runs as follows: under setting [1], 35.5 µM [rising, single point]; under setting [2], 35.5 µM [rising, single point]. For the compound `CCOC(=O)N1CCN(S(=O)(=O)c2ccc(C(=O)Nc3ccc(F)cc3F)cc2)CC1`, under setting [2], the AC50 was 3.98 µM [falling, partial curve].
